In article PMC10201669, “A novel coumarin derivative DBH2 inhibits proliferation and induces apoptosis of chronic myeloid leukemia cells” (Genes & Diseases, 2022):
Values after ≈ are worked out from the molar mass of the structure shown.

Columns and labels:
Type in all cases: cell-based
HUVECs = experiment: CCK-8 cell viability assay (cytotoxicity), HUVECs; settings: Homo sapiens, HUVEC; CCK-8, 48 h
Description: (§1) Human CML cell line K562 cells and human umbilical vein endothelial cells (HUVECs) were purchased from ATCC (Manassas, USA). Drug resistant K562 (K562R) cells were provided by the Chinese Academy of Medical Science Hematology Institute. The cells were cultured in RPMI-1640 medium containing 10% fetal bovine serum (FBS) in cell culture flasks under a humidified 5% CO2 and 95% air atmosphere at 37 °C. Bone marrow (BM) cells from mice or patients were cultured in DMEM/F12 medium supplemented with 20% FBS.
(§2) Cell viability was examined using the cell counting kit-8 (CCK-8) assay (YEASEN China). In brief, cells (1 × 10^4 cells/well) in confluent 96-well cell culture plates were treated with different concentrations of coumarin derivative (1, 5, 10, 25, 50, 100, 200, and 400 μg/mL) for 48 h. Then 10 μL CCK-8 reagents were added into every well for 2 h of incubation. Optical density (OD) was detected using the microplate reader (BioTek, Germany). The values were then fit into a non-linear regression curve and the IC50 was calculated using GraphPad Prism.

K562R cells = experiment: CCK-8 cell viability assay, drug resistant K562 cells; settings: Homo sapiens, K-562R; CCK-8, 48 h
Description: as §1, §2

[1] = system: CD34+ hematopoietic stem and progenitor cells (HSPCs); experiment: CCK-8 cell viability assay (cytotoxicity), HSPCs; settings: Homo sapiens; CCK-8, 48 h
Source text: Human CD34^+ HSCPs were obtained from the specimens of consenting healthy donors or CML patients at Xijing Hospital, and purified using Human Whole Blood CD34 Positive Selection Kit II (StemCell Technologies, China). Briefly, the human bone marrow was homogenized, and the top layering with Ficoll-Paque (GE Healthcare, USA) interphase containing immune cells and CD34^+ HSPCs was collected and washed with PBS, then CD34^+ HSPCs were purified according to the protocol of EasySep human CD34 positive selection kit (StemCell Technologies, China). CD34^+ cells were cultured in StemSpan-ACF medium II supplemented with 50 ng/mL human stem cell factor, 10 ng/mL thrombopoietin, 20 ng/mL FMS-related tyrosine kinase 3 ligand, 20 ng/mL interleukin-6 and 1% penicillin-streptomycin solution.
as §2

K562 cells = experiment: CCK-8 cell viability assay, K562 cells; settings: Homo sapiens, CCK-8, 48 h
Description: as §1, §2

Cc1ccc(NC(=O)c2ccc(CN3CCN(C)CC3)cc2)cc1Nc1nccc(-c2cccnc2)n1 [Imatinib, imatinib, reference compound] was tested, and the IC50 (HUVECs) was 12.4 mg/L (≈ 25.1 µM), the IC50 (K562R cells) was 4.86 mg/L (≈ 9.85 µM) and the IC50 [1] was 11.3 mg/L (≈ 23 µM). It also gave an IC50 (K562 cells) of 0.15 mg/L (≈ 0.304 µM).
